Measured values reported in patent publication US20160177373.

By UniProt entry, the sequences of proteins in these tests, tags left out.
UniProt P19821, whole entry G418C: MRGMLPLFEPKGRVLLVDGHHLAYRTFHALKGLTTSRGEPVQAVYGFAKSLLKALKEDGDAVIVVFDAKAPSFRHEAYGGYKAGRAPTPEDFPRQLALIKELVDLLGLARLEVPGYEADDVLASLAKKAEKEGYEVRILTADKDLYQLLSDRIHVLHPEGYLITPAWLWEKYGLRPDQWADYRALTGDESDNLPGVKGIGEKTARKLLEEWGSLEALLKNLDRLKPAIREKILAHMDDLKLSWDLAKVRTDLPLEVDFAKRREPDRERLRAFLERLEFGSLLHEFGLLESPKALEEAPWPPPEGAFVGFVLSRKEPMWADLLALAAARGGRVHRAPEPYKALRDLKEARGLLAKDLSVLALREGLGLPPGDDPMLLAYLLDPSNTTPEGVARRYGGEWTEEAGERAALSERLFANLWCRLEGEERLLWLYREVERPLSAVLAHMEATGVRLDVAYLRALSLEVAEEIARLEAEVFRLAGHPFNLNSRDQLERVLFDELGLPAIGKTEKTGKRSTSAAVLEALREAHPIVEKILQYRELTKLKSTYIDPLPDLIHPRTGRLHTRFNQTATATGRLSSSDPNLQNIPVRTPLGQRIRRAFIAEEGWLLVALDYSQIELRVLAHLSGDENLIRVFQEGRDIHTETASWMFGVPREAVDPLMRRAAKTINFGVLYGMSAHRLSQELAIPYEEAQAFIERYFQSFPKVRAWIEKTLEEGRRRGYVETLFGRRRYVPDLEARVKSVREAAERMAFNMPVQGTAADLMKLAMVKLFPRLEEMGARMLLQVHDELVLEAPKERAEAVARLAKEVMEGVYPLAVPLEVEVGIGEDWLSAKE
UniProt P19821, whole entry D732R: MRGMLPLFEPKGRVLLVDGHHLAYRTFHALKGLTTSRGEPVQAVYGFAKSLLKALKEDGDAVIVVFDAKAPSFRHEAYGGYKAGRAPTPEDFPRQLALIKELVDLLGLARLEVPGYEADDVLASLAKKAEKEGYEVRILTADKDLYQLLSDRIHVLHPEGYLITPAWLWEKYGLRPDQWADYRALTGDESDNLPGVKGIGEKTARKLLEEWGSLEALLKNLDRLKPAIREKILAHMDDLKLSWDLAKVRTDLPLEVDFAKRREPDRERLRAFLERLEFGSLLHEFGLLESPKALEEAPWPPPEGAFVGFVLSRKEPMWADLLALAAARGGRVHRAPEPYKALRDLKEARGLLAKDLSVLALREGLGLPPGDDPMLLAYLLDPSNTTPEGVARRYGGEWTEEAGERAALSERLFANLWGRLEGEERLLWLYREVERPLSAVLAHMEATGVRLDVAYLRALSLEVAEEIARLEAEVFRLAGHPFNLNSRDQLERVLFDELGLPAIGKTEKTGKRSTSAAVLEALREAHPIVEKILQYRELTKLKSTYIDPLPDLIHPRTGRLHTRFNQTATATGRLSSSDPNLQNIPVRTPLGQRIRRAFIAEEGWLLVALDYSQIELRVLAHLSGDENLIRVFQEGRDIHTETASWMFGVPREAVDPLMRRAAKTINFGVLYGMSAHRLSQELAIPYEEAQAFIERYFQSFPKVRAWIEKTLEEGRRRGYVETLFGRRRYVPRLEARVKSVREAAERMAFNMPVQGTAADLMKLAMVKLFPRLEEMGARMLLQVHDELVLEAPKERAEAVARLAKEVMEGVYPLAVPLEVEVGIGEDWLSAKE
UniProt P19821, whole entry: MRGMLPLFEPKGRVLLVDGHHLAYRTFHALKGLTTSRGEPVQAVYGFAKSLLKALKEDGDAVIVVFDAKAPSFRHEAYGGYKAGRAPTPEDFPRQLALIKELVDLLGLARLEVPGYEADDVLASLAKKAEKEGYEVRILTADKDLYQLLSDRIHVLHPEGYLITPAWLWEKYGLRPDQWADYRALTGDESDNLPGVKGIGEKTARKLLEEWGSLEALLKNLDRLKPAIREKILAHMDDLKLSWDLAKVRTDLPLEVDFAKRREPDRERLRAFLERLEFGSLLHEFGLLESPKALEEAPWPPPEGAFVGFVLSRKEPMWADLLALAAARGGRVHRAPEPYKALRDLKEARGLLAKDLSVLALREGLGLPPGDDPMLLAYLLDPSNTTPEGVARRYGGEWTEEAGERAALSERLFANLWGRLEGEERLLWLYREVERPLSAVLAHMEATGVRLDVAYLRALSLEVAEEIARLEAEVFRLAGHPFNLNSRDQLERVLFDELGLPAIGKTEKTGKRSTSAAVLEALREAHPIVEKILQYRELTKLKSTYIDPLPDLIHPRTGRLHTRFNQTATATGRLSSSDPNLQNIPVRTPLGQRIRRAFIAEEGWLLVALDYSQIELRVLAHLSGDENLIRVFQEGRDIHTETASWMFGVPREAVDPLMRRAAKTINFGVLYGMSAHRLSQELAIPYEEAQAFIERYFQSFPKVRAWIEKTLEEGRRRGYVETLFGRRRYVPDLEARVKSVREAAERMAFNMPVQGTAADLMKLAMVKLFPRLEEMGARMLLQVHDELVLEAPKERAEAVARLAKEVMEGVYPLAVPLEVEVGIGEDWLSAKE
UniProt P19821, whole entry E397V: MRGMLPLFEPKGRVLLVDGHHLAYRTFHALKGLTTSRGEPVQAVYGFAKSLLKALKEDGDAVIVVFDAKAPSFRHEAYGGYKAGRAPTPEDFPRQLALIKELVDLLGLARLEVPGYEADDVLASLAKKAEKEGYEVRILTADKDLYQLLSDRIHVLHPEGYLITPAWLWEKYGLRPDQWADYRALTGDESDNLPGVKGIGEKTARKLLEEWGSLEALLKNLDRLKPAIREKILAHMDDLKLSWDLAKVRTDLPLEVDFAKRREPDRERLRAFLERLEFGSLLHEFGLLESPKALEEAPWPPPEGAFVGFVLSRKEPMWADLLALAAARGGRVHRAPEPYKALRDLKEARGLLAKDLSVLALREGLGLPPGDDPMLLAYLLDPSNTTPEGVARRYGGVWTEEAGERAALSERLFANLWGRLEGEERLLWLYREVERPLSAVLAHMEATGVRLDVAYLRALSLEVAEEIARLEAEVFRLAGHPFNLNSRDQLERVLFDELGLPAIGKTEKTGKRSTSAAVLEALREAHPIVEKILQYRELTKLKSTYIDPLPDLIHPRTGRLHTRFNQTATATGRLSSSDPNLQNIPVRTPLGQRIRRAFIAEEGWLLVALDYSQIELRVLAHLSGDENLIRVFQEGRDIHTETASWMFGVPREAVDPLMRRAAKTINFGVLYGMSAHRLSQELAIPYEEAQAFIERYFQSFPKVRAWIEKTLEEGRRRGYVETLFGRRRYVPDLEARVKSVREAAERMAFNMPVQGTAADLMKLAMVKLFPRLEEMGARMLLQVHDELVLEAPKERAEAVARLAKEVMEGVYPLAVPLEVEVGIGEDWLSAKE
UniProt P19821, whole entry E794C/E805I: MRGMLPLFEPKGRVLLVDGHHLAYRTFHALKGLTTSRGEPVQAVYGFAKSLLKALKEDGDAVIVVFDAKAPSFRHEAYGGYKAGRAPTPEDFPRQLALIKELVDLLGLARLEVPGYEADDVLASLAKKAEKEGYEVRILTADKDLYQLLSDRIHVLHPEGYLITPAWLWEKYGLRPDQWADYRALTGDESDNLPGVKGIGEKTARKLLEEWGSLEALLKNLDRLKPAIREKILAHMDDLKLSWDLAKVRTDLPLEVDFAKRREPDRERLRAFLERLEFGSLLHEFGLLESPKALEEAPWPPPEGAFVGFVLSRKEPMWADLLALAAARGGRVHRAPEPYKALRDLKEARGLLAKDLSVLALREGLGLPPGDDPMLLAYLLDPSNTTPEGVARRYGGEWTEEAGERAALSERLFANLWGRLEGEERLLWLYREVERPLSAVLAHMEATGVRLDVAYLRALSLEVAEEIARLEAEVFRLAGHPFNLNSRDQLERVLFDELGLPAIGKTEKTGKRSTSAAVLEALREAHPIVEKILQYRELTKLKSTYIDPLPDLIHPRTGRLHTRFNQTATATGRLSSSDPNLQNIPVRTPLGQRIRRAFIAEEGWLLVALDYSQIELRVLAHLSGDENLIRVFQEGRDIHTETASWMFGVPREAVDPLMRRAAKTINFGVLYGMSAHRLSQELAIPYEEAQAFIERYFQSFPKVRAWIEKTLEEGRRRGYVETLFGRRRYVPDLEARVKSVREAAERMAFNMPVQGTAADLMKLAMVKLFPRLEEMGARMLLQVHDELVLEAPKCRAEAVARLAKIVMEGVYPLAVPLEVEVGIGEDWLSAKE
UniProt P19821, whole entry E397V/E745T: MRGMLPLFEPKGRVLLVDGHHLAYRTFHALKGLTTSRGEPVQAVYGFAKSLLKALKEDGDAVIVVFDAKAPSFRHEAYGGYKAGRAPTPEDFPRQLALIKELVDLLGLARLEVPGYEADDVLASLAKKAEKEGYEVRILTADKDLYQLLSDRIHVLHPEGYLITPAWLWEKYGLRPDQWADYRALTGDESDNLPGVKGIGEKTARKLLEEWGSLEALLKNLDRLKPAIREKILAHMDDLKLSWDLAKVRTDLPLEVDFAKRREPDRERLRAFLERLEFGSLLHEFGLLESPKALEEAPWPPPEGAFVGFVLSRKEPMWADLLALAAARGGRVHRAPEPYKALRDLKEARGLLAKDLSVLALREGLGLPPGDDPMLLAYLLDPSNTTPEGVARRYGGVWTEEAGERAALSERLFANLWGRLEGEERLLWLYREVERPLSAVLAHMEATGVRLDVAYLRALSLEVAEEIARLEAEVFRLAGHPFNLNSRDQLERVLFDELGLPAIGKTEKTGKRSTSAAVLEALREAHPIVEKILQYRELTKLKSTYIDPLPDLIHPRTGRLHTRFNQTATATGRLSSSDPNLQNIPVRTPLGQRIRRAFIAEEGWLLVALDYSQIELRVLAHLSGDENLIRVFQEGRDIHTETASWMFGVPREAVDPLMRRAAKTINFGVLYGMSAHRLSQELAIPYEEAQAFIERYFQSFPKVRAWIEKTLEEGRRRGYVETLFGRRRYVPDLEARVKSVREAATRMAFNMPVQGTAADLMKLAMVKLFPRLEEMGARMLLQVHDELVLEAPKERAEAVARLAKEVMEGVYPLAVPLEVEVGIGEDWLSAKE

Key:
Assay in all cases: activity assay
Conditions in all cases: X = fluorescein-dT [34 (fluorescein-dT)]; purified recombinant protein; label: fluorescein (internal dT); folded or branched DNA; letters built from the parent sequence and the stated change
[1] = target: Taq DNA polymerase G418C (Thermus aquaticus) (UniProt P19821)
[2] = target: Taq-LR1 (Taq DNA polymerase D732R) (Thermus aquaticus) (UniProt P19821)
[3] = target: Taq DNA polymerase wild type (Thermus aquaticus) (UniProt P19821)
[4] = target: Taq DNA polymerase E397V (Thermus aquaticus) (UniProt P19821)
[5] = target: Taq DNA polymerase E794C+E805I (Thermus aquaticus) (UniProt P19821)
[6] = target: Taq DNA polymerase E397V+E745T (Thermus aquaticus) (UniProt P19821)

Measured: activity on this sequence

TTTTTTTGCAGGTGACAGGTTTTTCCTGTCACCTGC [Oligo 221]
active: all assays above
